Hit rate of the full screen: of about 1,300 compounds, about 100 (7.7%) were called active. Inconclusive results (about 19%) are left out. The call rests on the fitted dose curve; in most records, active means well fitted activation curve with a large enough effect; inconclusive means small, poorly fitted or top-dose-only effect; inactive means no such curve, though single readings can be large or run the other way. This is a selection; strong and weak results do not stand in their true shares.

Chains of the proteins cited; added tags and fusions are not shown.
UniProt P08659, whole entry, looked up: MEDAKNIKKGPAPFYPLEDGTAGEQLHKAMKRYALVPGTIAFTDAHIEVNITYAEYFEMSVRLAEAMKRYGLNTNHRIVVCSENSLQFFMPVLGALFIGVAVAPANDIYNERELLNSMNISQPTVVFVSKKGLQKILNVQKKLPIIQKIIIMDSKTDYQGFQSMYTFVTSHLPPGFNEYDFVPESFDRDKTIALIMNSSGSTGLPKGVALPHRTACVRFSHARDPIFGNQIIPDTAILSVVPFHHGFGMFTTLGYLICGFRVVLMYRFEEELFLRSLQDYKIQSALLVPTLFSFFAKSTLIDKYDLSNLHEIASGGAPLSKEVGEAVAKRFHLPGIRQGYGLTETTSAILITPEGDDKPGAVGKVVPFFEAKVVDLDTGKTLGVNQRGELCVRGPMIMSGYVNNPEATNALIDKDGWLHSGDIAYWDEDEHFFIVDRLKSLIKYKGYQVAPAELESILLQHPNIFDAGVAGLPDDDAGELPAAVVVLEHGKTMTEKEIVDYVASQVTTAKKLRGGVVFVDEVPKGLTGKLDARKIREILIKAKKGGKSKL

The target of this experiment is Luciferin 4-monooxygenase (Photinus pyralis) (UniProt P08659). Kind of experiment: Firefly luciferase (FLuc-C-HiBiT) SDR gain of signal screen - without ATP. Further: nearly all actives have a fitted effect of over 55% in size. Conditions: Purified FLuc-C-HiBiT, Nano-Glo HiBiT luminescence, no ATP; at 49.3 µM (top of the series). The source says: PI: James Inglese Ph.D. National Center for Advancing Translational Sciences (NCATS), National Institute of Health (NIH), Maryland Discovery and optimization of novel protein-binding ligands underlies many of the methods and applications of biology, drug discovery, clinical diagnostics, and environmental toxicology. Assays for detecting the interaction of, for example, a molecule with a macromolecular target also referred to here as the target of interest (TOI) is dependent on a compatible output technology. Depending on the nature and knowledge surrounding the TOI, whether a receptor, enzyme, regulatory subunit or scaffold, or a sequence-defined nucleic acid folded into a complex tertiary structure, assay strategies can vary widely. Here we exploit ligand-biased changes in the structural dynamics of the target protein to control reporter alpha complementation allowing a non-competitive, non-functional, non-separation measure of ligand-target interaction. […]
1. […] HiBiT SDR assay measured using CCD-based camera (ViewLux) with settings as follows: Exposure, 1 sec; Gain, High; Speed, Slow; Binning, 2X. […]
A general note: HiBiT is a short tag that completes a luciferase, so light tracks the accessible tagged protein.
As for `CN1CCNc2cc(-c3ccc([S+](C)(=O)[O-])cc3)ncc2C1`, the activation (signal gain) is inactive: 15.2%.

Source of the values: PubChem BioAssay AID1963318 (National Center for Advancing Translational Sciences (NCATS), 2024).
